Reference: patent US20240293511A1, “HEPCIDIN MIMETICS FOR TREATMENT OF HEREDITARY HEMOCHROMATOSIS” (Protagonist Therapeutics, Inc., priority 2021, published 2024)
At least one peptide structure holds a part that was inferred or is arguable (an end, a ring closure or a residue).

How the values were obtained:
[1] = test system: HH mice (129S-Hjv^tmlNca/J); experiment: Pharmacodynamics in iron-overloaded hereditary hemochromatosis mice; format: in vivo; settings: after 12 doses, 5 mg/kg Q2D
HH mice = experiment: Liver iron in HH mice under less severe iron-overload conditions; format: in vivo; settings: 2.5 mg/kg Q2D
HH patients = experiment: Phase 2 open-label dose-finding study in hereditary hemochromatosis patients; format: in vivo, human
Experimental: A clinical efficacy study was conducted in HH patients. Subjects received subcutaneous Compound 25 for up to 24 weeks. Subjects were started at an initial dose of 10 mg per week subcutaneously. The dose was increased to 20 mg per week, and subsequently to 40 mg and to 80 mg per week as needed, based on tolerability and the pharmacodynamic marker TSAT. In addition, subcutaneous dosing schedules of 10 mg, 20 mg, 30, and 40 mg twice weekly (Day 1 and either Day 4 or Day 5 were tested). The majority of patients were administered doses of 20 mg per week or less. Subjects' safety and blood iron parameters (serum iron, serum ferritin, transferrin, and TSAT) were collected to monitor the pharmacodynamic effect of Compound 25. Effects on phlebotomy need and QoL data (36-Item Short Form Health Survey [SF-36], and Patient's Global Impression of Change [PGI-C]) were also be collected and tabulated.
Individual subject's dose and schedule were determined based on the pharmacodynamic (PD) marker TSAT measured at two time points following dosing: once at peak PD effect one day post dose and once at trough PD effect. The intent of dose and schedule adjustment was to reduce TSAT and serum iron levels. If necessary, the dose of Compound 25 was increased weekly in a sequential manner from 10 mg to 20 mg and, if necessary, to 30 mg, 40 mg and 80 mg until the TSAT was less than approximately 40% at peak PD effect one day post dose and at the trough PD effect prior to the next dose of Compound 25. Dosing was once a week or twice a week. The trough PD effect was the TSAT value measured 7 days after the Compound 25 dose (and before the next dose) for once weekly dosing or 7 days after the first dose in a week for twice weekly dosing. For the twice weekly regimen, the doses were given at least 3 days apart (e.g., on Day 1 and Day 4 or 5 of each week). The twice weekly Compound 25 dose was escalated to a maximum of 40 mg twice weekly. To facilitate dose escalation and the identification of a therapeutic dose, investigators assessed TSAT values on days subjects came to the clinic for any dose adjustments.
Methods: This single-arm, open-label, dose-finding phase 2 study investigated subcutaneous hepcidin mimetic (Compound 25) in patients (pts) with confirmed HH who were on documented stable phlebotomies (phl) for at least 6 months (mos) prior to treatment with a phl frequency of 0.25-1 per month. Patients with clinically meaningful laboratory abnormalities and those receiving iron chelation therapy or erythrocytapheresis were excluded. Patients received individually titrated Compound 25 doses once or twice a week to maintain transferrin saturation (TSAT) below 45% and were followed for 6 months, as outlined in FIG. 3. Endpoints included TSAT, serum iron, serum transferrin and serum ferritin, liver iron content (LIC) measured by FerriScan MRI, adverse events, and patient-reported outcomes on the Patient Global Impression of change (PGI-C) and Medical Outcome Study Questionnaire Short Form Health Survey (SF-36). Compound 25 was formulated in an aqueous buffered solution. Results: Sixteen pts (10 M/6 F) were enrolled. Mean age and weight were 62.5 years and 88.1 kg, respectively. […] In the 6 months prior to the study, average phlebotomy (phl) rate was 0.27 phl/month prior to study compared to 0.03 phb/month during study (p<0.0001). Study endpoints included safety, reduction in phlebotomies, serum iron, TSAT, transferrin, ferritin, liver iron content by MRI, adverse events. […] Average baseline TSAT was 45% compared with 30.4% during the study (p=0.0025). […] Treatment with Compound 25 maintained liver iron content with no statistically significant difference at baseline or post treatment with Compound 25 (FIG. 9).

healthy human volunteers = experiment: Single subcutaneous dose study in healthy human volunteers; format: in vivo; settings: single sc dose 1, 3, 10, 20, 40 or 80 mg; within less than one day, gradually increased over next 5-6 days; FIG. 12
[2] = test system: HH patients in maintenance phase and transfusion-dependent 3-thalassemia patients; experiment: TSAT and MCHC in HH patients and transfusion-dependent thalassemia patients; format: in vivo, human; settings: prior to vs 24 weeks after administration; FIG. 13

## CCCCCCCCCCCCCCCC(=O)N[C@@H](CCC(=O)NCCCC[C@@H]1NC(=O)[C@H]([C@@H](C)CC)NC(=O)[C@@H](NC(=O)[C@@H]2CCCN2C(=O)[C@H](Cc2ccccc2)NC(=O)[C@H](Cc2c[nH]cn2)NC(=O)[C@@H](NC(=O)[C@H](CC(=O)O)NC(=O)CC(C)C)[C@@H](C)O)CSSC[C@@H](C(=O)N[C@@H](CCCCN)C(N)=O)NC(=O)CNC(=O)[C@H](CCCCN)NC(=O)[C@H](CO)NC(=O)[C@H](CCCNC(=N)N)NC(=O)[C@@H]2CCCN2C(=O)[C@H](CCC(=O)O)NC(=O)[C@H](Cc2ccccc2)NC1=O)C(=O)O [Compound 25, Isovaleric acid-DTHFPCI(K(isoGlu-Palm))FEPRSKGCK-NH2]
[1]
  iron accumulation in kidneys: reduced
  iron accumulation in liver: reduced
  iron accumulation in pancreas: reduced
[1]; trough
  ferritin: lowered
  iron distribution to spleen: redistribution of iron to spleen
[1]; at trough drug levels (48 hr post-last dose)
  TSAT % reduced by: ~10%
HH mice; less severe iron-overload conditions, treated for 2 weeks, normal iron diet
  liver iron accumulation: prevented
HH mice; mice maintained on low-iron diet until start of therapy
  liver iron (non-heme), FIG. 2A: reduction in liver iron
HH mice; mice on normal diet for two weeks before treatment (partial iron overload)
  liver iron (non-heme), FIG. 2B: reduction in iron liver
HH patients; 24.5 μmol/L pre-study, p=0.0059
  average serum iron during the study: 17.7 µmol/mL
HH patients; 137 ug/dL at baseline
  serum iron post treatment: 98.6 µg/dL
HH patients; 16 HH patients, 6 months, 0.27 phl/month prior to study, p<0.0001
  average phlebotomy rate during study: 0.03 phb/month
HH patients; FIG. 7
  dose and concentration dependence of serum iron and TSAT: dose- and concentration-dependent decrease
HH patients; FIG. 8
  serum ferritin levels, baseline to post-treatment: maintained relatively constant
  serum transferrin levels, baseline to post-treatment: maintained relatively constant
HH patients; average baseline TSAT 45%, p=0.0025
  average TSAT during the study: 30.4%
HH patients; baseline 2.2869
  serum transferrin post Compound 25, FIG. 8 bottom right graph: 2.4169
  serum transferrin post Compound 25, FIG. 8 top right graph: 2.4531
HH patients; baseline 25.5454
  serum iron post Compound 25, FIG. 6 right graph: 17.6591
HH patients; baseline 45.0000
  transferrin saturation (%) post Compound 25, FIG. 5B left graph: 30.3948%
  transferrin saturation (%) post Compound 25, FIG. 5B right graph: 36.2500%
HH patients; baseline 82.3431
  serum ferritin post Compound 25, FIG. 8 bottom left graph: 114.4775
  serum ferritin post Compound 25, FIG. 8 top left graph: 85.0126
HH patients; certain patients, when phlebotomies could not
  TSAT in patients with TSAT above 45% at baseline: less than or close to the 45%
HH patients; duration of treatment, FIGS. 4A and 4B
  phlebotomy need: eliminate phlebotomy in the vast majority of subjects
HH patients; minimal use of phlebotomies, no statistically significant difference baseline vs post treatment, FIG. 9
  liver iron content (LIC) by FerriScan MRI: maintained at pre-study levels
HH patients; patient reported outcomes, FIG. 10
  SF-36 Role Physical and Role Emotional subcomponents: improvements were noted
Healthy human volunteers
  TSAT levels: dose responsive reduction
[2]
  MCHC levels: decreased
  TSAT levels: decreased
